Test [1] deals with antigen B7-H3 (R&D). Description: ELISA, coated B7-H3 (R&D), IgG1 antibody. (ELISA stands for enzyme-linked immunosorbent assay.)
Test [2] has as its target antigen B7-H3 (R&D). Description: ELISA on coated B7-H3.
In test [3] the target is antigen B7-H3 (R&D). Description: ELISA on coated B7-H3 (R&D), detection with goat anti-human IgG (Fc)-HRP.
Test [4] addresses antigen B7-H3 (R&D). Description: ELISA on B7-H3 protein.

These are yes or no findings as the source states them, for the method shown. Binding can be weak; no strength is given.

B1: P3H6 full-length IgG1 antibody (antibody, V domains shown)
VH: QVQLVQSGAEVKKPGESLKISCKGSGYSFSNYWIGWVRQMPGKGLEWMGIIYPGDSDTRYSPSFQGQVTISADKSISTAYLQWSSLKASDTAMYYCARSRGYPTNYMDVWGRGTTVTVSS
VL: QAVLTQPPSVSGAPRQRVTISCSGSSSNIGNNIVSWYQHLPGKAPRLLIYRERQRPSGVPDRFSGSKSGTSASLAISGLRSEDEADYYCATWDDSLNSWVFGGGTKLTVL
For the molecule B1, the binding result with antigen B7-H3 (R&D) [1] and in the test with antigen B7-H3 (R&D) [2] was “binds” each time.

B2: P7F10 full-length IgG1 antibody (antibody, V domains shown)
VH: QVQLQQSGGGLVQPGGSLRLSCAASGFTFSSYPMSWVRQAPGKGLEWVSVISGSGGSTFYADSVKGRFTISRDNSKNTLYLQVNSLRAEDTAVYYCAKDGRTLSGMDVWGQGTTVTVSS
VL: QPVLTQPPSASGTPGQRVTISCSGSSSNIGSNPVNWYQQLPGTAPKLLIYNNNQRPSGVPDRFSGSKSGTSGSLAISGLQSEDEAHYYCAAWDVSLKEVFGGGTKVTVL
For B2, the binding entry with antigen B7-H3 (R&D) [1] and with antigen B7-H3 (R&D) [2] was “binds” in each case.

B3: P1D1 full-length IgG1 antibody (antibody, V domains shown)
VH: QVQLVQSGAEVKKPGESLKISCKGSGYSFTSYWIGWVRQMPGKGLEWMGIIYPGDSDTRYSPSFQGQVTISADKSISTAYLQWSSLKASDTAMYYCARRSVAGLDYWGQGTLVTVSS
VL: KTVVTQPPSASGTPGQRVTISCSGSSSNIGSKYVYWYQQLPGTAPRLLIYRNNQRPSGVPDRFSGSKSGTSASLAISGLRSEDESDYYCASWDDRLKGYAFGTGTKVTVL
Consider B3, for which the binding entry with antigen B7-H3 (R&D) [1] and with antigen B7-H3 (R&D) [3] was “binds” in each case.

B4: P2E3 full-length IgG1 antibody (antibody, V domains shown)
VH: QVQLVQSGAEVKKPGESLKISCKGSGYSFTSYWIGWVRQMPGKGLEWMGIIYPGDSDTRYSPSFQGQVTISADKSISTAYLQWSSLKASDTAMYYCARRSREGFDPWGQGTLVTVSS
VL: QAVLTQPSSASGTPGQRVTMSCSGAASNIGKNFVYWYQQLPGRAPRLLISRNIQRPSEVPDRFSGSKSGTSASLAISGLQSEDEADYYCAAWDDSLNGFVFGTGTAVTVL
On to B4, for which the binding entry in the test with antigen B7-H3 (R&D) [1] is recorded as “no binding (tested: 2000 ng/ml (highest concentration))”.

B5: P2E5 full-length IgG1 antibody (antibody, V domains shown)
VH: QVTLKESGGGLVQPGGSLRLSCAASGFTFSNSYMTWVRQAPGMGLEWVASMKPDGSVKHYVDSVKGRFTISRDNTKNSLDLQMNSLRAEDTAVYYCSSYDTRWGWFDPWGEGTLVTVSS
VL: QTVVTQEPSFSVSPGGTVTLTCGLNSGSVSTSYFPSWYQQTPGQAPRTLIYNTNTRSSGVPDRFSGSILGNKAALTITGAQADDESDYYCLLYMDSGPHWVFGGGTKLTVL
With B5, the binding entry with antigen B7-H3 (R&D) [1] and with antigen B7-H3 (R&D) [3] was “binds” throughout.

B6: P9A12 full-length IgG1 antibody (antibody, V domains shown)
VH: QVTLKESGGGLVQPGGSLRLSCAASGFTFSSYAMSWVRQAPGKGLEWVSAISGSGGSTYYADSVKGRFTISRDNSKNTLYLQMNSLRAEDTAVYYCARGAGIDAFDIWGQGTMVTVSS
VL: QSALTQPASVSGSPGQSITISCTGTSSDVGAYNYVTWYQQYPGKAPKLMIYDVSERPSGVSNRFSGSKSGNTASLTISGLQAEDEADYYCSSFTSSISWVFGGGTKLTVL
As to B6, the binding result with antigen B7-H3 (R&D) [1] and with antigen B7-H3 (R&D) [2] was “binds” each time.

B7: P1G2 full-length IgG1 antibody (antibody, V domains shown)
VH: QVQLQQSGAEVKKPGSSVKVSCKASGGTFSSYAISWVRQAPGQGLEWMGRIIPILGIANYAQKFQGRVTITADKSTSTAYMELSSLRSEDTAVYYCAVNYYDSSGYYSDYWGQGTLVTVSS
VL: SYELTQPPSASGSPGQSVTISCTGTSSDVGGYNYVSWYQQHPGKAPRLMIYGVSQRPSGVPDRFSGSKSGNTASLTVSGLQAEDEADYYCSSYANNNYVFGTGTKVTVL
Turning to B7, the binding entry with antigen B7-H3 (R&D) [1], with antigen B7-H3 (R&D) [4] and in the test with antigen B7-H3 (R&D) [3] was “binds” each time.

The record behind these values is patent publication US20220017620A1.
